Results from one PubChem assay

The results are deposited in PubChem (AID686998; Broad Institute, 2013).

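Growth of the yeast Cryptococcus neoformans, measured by an Alamar Blue plate-reader signal after 24 hours of compound exposure. Percent change in signal, scaled so neutral controls are 0 and positive controls are -100; more negative means stronger growth inhibition. Inconclusive is filed for a poor-quality curve fit or a flat fit between -70% and -30%; active requires a fitted AC50 at most twice the top valid dose.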

Values are in %. All entries here are filed as inconclusive. These entries are mostly ones the record files as inconclusive; other results of the assay are not listed here.

{"structure": "O=C(CN(c1ccc(F)cc1)S(=O)(=O)c1ccccc1)NCCSC1CCCCC1", "tested on / at": "at 35 µM (top of the series)", "activity change (%)": "-28.52"}
{"structure": "COCC#Cc1ccc2c(c1)O[C@H](CN(C)S(=O)(=O)c1ccc(OC)cc1)[C@H](C)CN([C@H](C)CO)S2(=O)=O", "tested on / at": "at 35 µM (top of the series)", "activity change (%)": "-0.427"}
{"structure": "O=C(CCCNC(=O)c1ccc(Cl)cc1)Nc1nccs1", "tested on / at": "at 35 µM (top of the series)", "activity change (%)": "-33.74"}
{"structure": "Cc1c(Cl)cccc1NC(=O)C1NC(=O)CC1c1ccccc1", "stereo": "centres undefined", "tested on / at": "at 35 µM (top of the series)", "activity change (%)": "-38.87"}
{"structure": "O=C(NC(=S)Nc1ccccc1N1CCOCC1)c1cccc([N+](=O)[O-])c1", "tested on / at": "at 35 µM (top of the series)", "activity change (%)": "-48.84"}
{"structure": "O=C(COc1ccc2c(c1)CCC2)NCc1ccccc1", "tested on / at": "at 35 µM (top of the series)", "activity change (%)": "-21.3"}
{"structure": "C#CCN(C(=O)c1ccc(OC2CCN(C(=O)CCOC)CC2)cc1)C1CCCCC1", "tested on / at": "at 35 µM (top of the series)", "activity change (%)": "-53.09"}
{"structure": "O=C(CN(c1ccc(F)cc1)S(=O)(=O)c1ccccc1)N1CCOCC1", "tested on / at": "at 35 µM (top of the series)", "activity change (%)": "-39.78"}
{"structure": "Cc1ccc2cc(NC(=O)c3ccccc3)ccc2n1", "tested on / at": "at 35 µM (top of the series)", "activity change (%)": "-61"}
{"structure": "CCOC(=O)NC(=S)Nc1ccc(C(C)(C)C)cc1Br", "tested on / at": "at 35 µM (top of the series)", "activity change (%)": "-58.47"}
{"structure": "O=C(NC[C@@H]1[C@@H](c2ccccc2)[C@H](CO)N1C(=O)C1CCC1)NC1CCCC1", "tested on / at": "at 35 µM (top of the series)", "activity change (%)": "-39.01"}
{"structure": "Cc1ccc(-n2ncc3c(SCC(N)=O)ncnc32)cc1C", "tested on / at": "at 35 µM (top of the series)", "activity change (%)": "-52.24"}
{"structure": "Cc1ccc(C(=O)n2nnc3ccccc32)cc1[N+](=O)[O-]", "tested on / at": "at 35 µM (top of the series)", "activity change (%)": "-34.19"}
{"structure": "COc1ccccc1-c1ccc([C@H]2[C@H](C#N)N(C(=O)C3CC3)[C@H]2CO)cc1", "tested on / at": "at 35 µM (top of the series)", "activity change (%)": "-41.73"}
{"structure": "CCCN1C(=O)C(O)(C2CC(=O)CC(C)(C)O2)c2ccccc21", "stereo": "centres undefined", "tested on / at": "at 35 µM (top of the series)", "activity change (%)": "-22.52"}
{"structure": "Cc1ccc(CSc2ncnc3c2cnn3-c2ccccc2)cc1", "tested on / at": "at 35 µM (top of the series)", "activity change (%)": "-53.58"}
{"structure": "CCN(C(=O)CSc1ncnc2c1cnn2-c1ccccc1)C1CCS(=O)(=O)C1", "stereo": "centres undefined", "tested on / at": "at 35 µM (top of the series)", "activity change (%)": "-55.2"}
{"structure": "CC(C)CC1(C)N=C(c2ccccc2)C(=S)N1", "stereo": "centres undefined", "tested on / at": "at 35 µM (top of the series)", "activity change (%)": "-48.84"}
{"structure": "COc1cccc(S(=O)(=O)Nc2ccc3c(c2)OC[C@@H](C)NC[C@H](C)[C@@H](OC)CN(C)C3=O)c1", "tested on / at": "at 35 µM (top of the series)", "activity change (%)": "-30.79"}
{"structure": "CC(C)N1C(=O)C2(OCCCO2)c2cc(Br)ccc21", "tested on / at": "at 35 µM (top of the series)", "activity change (%)": "-35.76"}
{"structure": "CCNC(=O)CN(c1ccc(C)cc1)S(=O)(=O)c1ccc(SC)cc1", "tested on / at": "at 35 µM (top of the series)", "activity change (%)": "-23.61"}
{"structure": "N#C[C@H]1[C@@H](c2ccccc2)[C@@H](CO)N1C(=O)Cc1ccccc1", "tested on / at": "at 35 µM (top of the series)", "activity change (%)": "-29.68"}
{"structure": "CCc1ccc(C(=O)NC(=S)NCc2cccnc2)cc1", "tested on / at": "at 35 µM (top of the series)", "activity change (%)": "-62.3"}
{"structure": "Cc1ccc(N2C(=O)CC(N3CCN(c4ccc(F)cc4)CC3)C2=O)c(C)c1", "stereo": "centres undefined", "tested on / at": "at 35 µM (top of the series)", "activity change (%)": "-45.95"}
{"structure": "C[C@H]1CCCCO[C@@H](CN(C)Cc2ccncc2)[C@@H](C)CN([C@@H](C)CO)C(=O)c2cc(NC(=O)Nc3ccccc3)ccc2O1", "tested on / at": "at 35 µM (top of the series)", "activity change (%)": "-44.36"}

Repeated from the top, 2 entries:

| structure | tested on / at | activity change (%) |
|---|---|---|
| `O=C(CN(c1ccc(F)cc1)S(=O)(=O)c1ccccc1)NCCSC1CCCCC1` | at 35 µM (top of the series) | -28.52 |
| `COCC#Cc1ccc2c(c1)O[C@H](CN(C)S(=O)(=O)c1ccc(OC)cc1)[C@H](C)CN([C@H](C)CO)S2(=O)=O` | at 35 µM (top of the series) | -0.427 |